Measurements reported in PubChem BioAssay AID1259308 (NCATS, 2017).
Shown is one part, drawn at random, of about 59,000 reagents tested. Of all reagents, about 1,510 (2.6%) were called active. 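Calls use total luciferase alone and ignore viability, so some active siRNAs may act by altering cell number.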 Reagents against one gene are numbered here. Reagent sequences are not shown.

- Screen: 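Genes whose loss raises luciferase production in HEK293 cells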 (primary screen)
- Cell system: human HEK293 embryonic kidney cells stably expressing firefly luciferase (HEK-CMV-Luc2-Hygro)
- Knock-down reagent: single siRNA against human genes, 0.8 pmol siRNA per well
- Duration: 72 h
- Measured: 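Luciferase light (ONE-Glo) measured on one replicate plate set and viability (CellTiter-Glo) on the other, scaled to a negative control siRNA, with robust z-scores and luciferase per cell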
- Scale: total luciferase, z-score and total luciferase, % of control: higher = more reporter protein produced; luciferase per cell, z-score: higher = more reporter output per viable cell; viable cells, % of control: higher = more viable cells
- Call rule: 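Active when the median/MAD z-score for overall luciferase is greater than 3; a gene was taken forward for validation with new siRNAs if at least two of its three siRNAs passed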
- Calls: active = raised luciferase; inactive = no rise

no.	gene	siRNA no.	total luciferase, z-score	total luciferase, % of control	luciferase per cell, z-score	viable cells, % of control	Call
1	OR2A2 (olfactory receptor family 2 subfamily A member 2)	1	-0.189	78.1	0.415	78.2	inactive
2	OR2A2 (olfactory receptor family 2 subfamily A member 2)	2	0.742	96.6	0.319	99.3	inactive
3	OR2A2 (olfactory receptor family 2 subfamily A member 2)	3	-0.959	62.8	0.301	64.8	inactive
4	MMP12 (matrix metallopeptidase 12)	1	-1.61	49.9	-1.21	76.7	inactive
5	MMP12 (matrix metallopeptidase 12)	2	0.432	90.5	1.29	72.1	inactive
6	MMP12 (matrix metallopeptidase 12)	3	5.4	189	3.06	94.6	active
7	PCDHA13 (protocadherin alpha 13)	1	0.472	91.3	0.314	93.9	inactive
8	PCDHA13 (protocadherin alpha 13)	2	-0.341	75.1	0.644	70.8	inactive
9	PCDHA13 (protocadherin alpha 13)	3	-0.674	68.5	-0.981	99.1	inactive
10	ZNF239 (zinc finger protein 239)	1	-1.42	53.6	-1.28	83.8	inactive
11	ZNF239 (zinc finger protein 239)	2	-0.0778	80.3	0.0167	89.4	inactive
12	ZNF239 (zinc finger protein 239)	3	0.425	90.3	0.483	88.9	inactive
13	RPL36AP8 (ribosomal protein L36a pseudogene 8)	1	-0.536	71.2	-0.179	83.4	inactive
14	RPL36AP8 (ribosomal protein L36a pseudogene 8)	2	-0.966	62.7	-0.505	80	inactive
15	RPL36AP8 (ribosomal protein L36a pseudogene 8)	3	0.527	92.4	-0.231	110	inactive

Next part, starting with the last 4 of the part before.
no.	gene	siRNA no.	total luciferase, z-score	total luciferase, % of control	luciferase per cell, z-score	viable cells, % of control	Call
12	ZNF239 (zinc finger protein 239)	3	0.425	90.3	0.483	88.9	inactive
13	RPL36AP8 (ribosomal protein L36a pseudogene 8)	1	-0.536	71.2	-0.179	83.4	inactive
14	RPL36AP8 (ribosomal protein L36a pseudogene 8)	2	-0.966	62.7	-0.505	80	inactive
15	RPL36AP8 (ribosomal protein L36a pseudogene 8)	3	0.527	92.4	-0.231	110	inactive
16	SENP6 (SUMO specific peptidase 6)	1	-1.58	50.4	-1.22	77.8	inactive
17	SENP6 (SUMO specific peptidase 6)	2	-0.074	80.4	0.21	85	inactive
18	SENP6 (SUMO specific peptidase 6)	3	-1.35	55	-1.2	84.4	inactive
19	FFAR2 (free fatty acid receptor 2)	1	-0.803	65.9	-0.909	93.6	inactive
20	FFAR2 (free fatty acid receptor 2)	2	-0.724	67.5	-1.01	98.4	inactive
21	FFAR2 (free fatty acid receptor 2)	3	-0.00911	81.7	1.13	67.8	inactive
22	THOC1 (THO complex subunit 1)	1	-0.474	72.5	-0.467	91.6	inactive
23	THOC1 (THO complex subunit 1)	2	-1.18	58.3	-1.64	100	inactive
24	THOC1 (THO complex subunit 1)	3	-0.677	68.4	-1.4	110	inactive
25	MUC7 (mucin 7, secreted)	1	-1.22	57.6	-1.65	99.3	inactive
26	MUC7 (mucin 7, secreted)	2	-0.85	65	-0.801	89.6	inactive
27	MUC7 (mucin 7, secreted)	3	-0.499	72	-0.106	82.7	inactive
28	MTRFR (mitochondrial translation release factor in rescue)	1	-0.0758	80.4	0.79	72.9	inactive
29	MTRFR (mitochondrial translation release factor in rescue)	2	0.619	94.2	1.07	79.4	inactive
30	MTRFR (mitochondrial translation release factor in rescue)	3	0.0176	82.2	-0.402	102	inactive
31	CEP85 (centrosomal protein 85)	1	-0.69	68.2	0.475	67.2	inactive
32	CEP85 (centrosomal protein 85)	2	0.48	91.4	0.228	96.2	inactive
33	CEP85 (centrosomal protein 85)	3	-1.17	58.7	-0.563	76	inactive
34	SAMD9L (sterile alpha motif domain containing 9 like)	1	0.873	99.3	0.763	90.7	inactive
35	SAMD9L (sterile alpha motif domain containing 9 like)	2	-0.276	76.4	0.317	78.5	inactive
36	SAMD9L (sterile alpha motif domain containing 9 like)	3	2.65	135	2.53	77.2	inactive
37	RPS10P30 (ribosomal protein S10 pseudogene 30)	1	-0.311	75.7	0.586	72.5	inactive
38	RPS10P30 (ribosomal protein S10 pseudogene 30)	2	-1.94	43.4	-1.56	73.1	inactive
39	RPS10P30 (ribosomal protein S10 pseudogene 30)	3	-0.759	66.8	0.998	57.4	inactive
